Source: PubChem BioAssay AID248 (DTP/NCI, 2004)
The list does not hold the whole screen: it gathers tests that were run many times, whatever their T/C, doses with no T/C, and many T/C values between a quarter and a half above the control. Further doses and runs are listed elsewhere. T/C: endpoint of the treated group in % of that of the vehicle group. Some doses have a count of surviving animals in place of a T/C: the source holds a T/C of zero for them, seemingly a mark for toxic or unscored doses. Some doses without a T/C left all or most animals alive at the check, yet need not have been tolerated: survival well below the control is almost never listed, so the zero probably covers shortened survival too. Counts of survivors are from the toxicity check (mostly the fifth day) where no day follows; animals may have died later. Schedule codes are those of the source, taken here to give the interval after Q, in days (D) or hours (H), and the number of doses after X. Some doses were run more than once; the values are given in rising order. Some schedule codes hold Z or #, which are not explained here. Some structures stand for samples that the source files as different forms (salt, stereo form or complex); doses refer to the form tested. For survival time, this PubChem deposit counts one and a half times the control or more as active, and values a quarter to a half above the control carry no call in these data; other NCI protocols may use other cut-offs.

System: L1210 leukemia ip in BDF1 mice, survival T/C
Test: NCI In Vivo Anticancer Drug Screen. Data for tumor model L1210 Leukemia (intraperitoneal) in B6D2F1 (BDF1) mice
Settings: higher T/C = longer survival
[1] = T/C endpoint: mean survival time, dose: 200.0 mg/kg/injection, schedule: Q04DX003 (ip), vehicle: saline
[2] = T/C endpoint: mean survival time, dose: 400.0 mg/kg/injection, schedule: Q04DX003 (ip), vehicle: saline
[3] = T/C endpoint: mean survival time, dose: 400.0 mg/kg/injection, schedule: Q04DX003 (ip), vehicle: saline with Tween-80

For `CC[n+]1c(-c2ccccc2)c2cc(N)ccc2c2ccc(N)cc21`, the T/C (T/C endpoint: mean survival time, dose: 2.0 mg/kg/injection, schedule: Q01DX Z (ip), vehicle: saline) was 130 % of control, the T/C (T/C endpoint: mean survival time, dose: 2.5 mg/kg/injection, schedule: Q01DX Z (ip), vehicle: saline) was 127 % of control and the T/C (T/C endpoint: mean survival time, dose: 5.0 mg/kg/injection, schedule: Q01DX Z (ip), vehicle: saline) was 139 % of control. The T/C (T/C endpoint: mean survival time, dose: 5.0 mg/kg/injection, schedule: Q#A X Z (ip), vehicle: saline) was 141 % of control, the T/C (T/C endpoint: mean survival time, dose: 8.0 mg/kg/injection, schedule: Q02DX010 (ip), vehicle: saline) was 127 % of control and the T/C (T/C endpoint: mean survival time, dose: 10.0 mg/kg/injection, schedule: Q01DX Z (ip), vehicle: saline) was 148 % of control. The T/C (T/C endpoint: mean survival time, dose: 12.0 mg/kg/injection, schedule: Q02DX010 (ip), vehicle: saline) was 134 % of control, the T/C (T/C endpoint: mean survival time, dose: 18.0 mg/kg/injection, schedule: Q02DX010 (ip), vehicle: saline) was 133 % of control and the survivor count (T/C endpoint: mean survival time, dose: 20.0 mg/kg/injection, schedule: Q01DX006 (iv), vehicle: saline) was 0 of 6. The survivor count (T/C endpoint: mean survival time, dose: 20.0 mg/kg/injection, schedule: Q## X040 (ip), vehicle: saline) was 6 of 10, the survivor count (T/C endpoint: mean survival time, dose: 20.0 mg/kg/injection, schedule: Q#A X Z (ip), vehicle: saline) was 5 of 6 and the T/C (T/C endpoint: mean survival time, dose: 27.0 mg/kg/injection, schedule: Q02DX010 (ip), vehicle: saline) was 131 % of control. The T/C (T/C endpoint: mean survival time, dose: 30.0 mg/kg/injection, schedule: Q03DX006 (ip), vehicle: saline) was 127 % of control, the T/C (T/C endpoint: mean survival time, dose: 35.0 mg/kg/injection, schedule: Q01DX001 (ip), vehicle: saline) was 127 and 130 % of control and the T/C (T/C endpoint: mean survival time, dose: 35.0 mg/kg/injection, schedule: Q07DX003 (ip), vehicle: saline) was 137 % of control. The survivor count (T/C endpoint: mean survival time, dose: 40.0 mg/kg/injection, schedule: Q01DX006 (iv), vehicle: saline) was 0 of 6, the survivor count (T/C endpoint: mean survival time, dose: 40.0 mg/kg/injection, schedule: Q01DX Z (im), vehicle: saline) was 2 of 6 and the survivor count (T/C endpoint: mean survival time, dose: 40.0 mg/kg/injection, schedule: Q01DX Z (ip), vehicle: saline) was 5 of 6. The survivor count (T/C endpoint: mean survival time, dose: 40.0 mg/kg/injection, schedule: Q01DX Z (sc), vehicle: saline) was 5 of 6, the survivor count (T/C endpoint: mean survival time, dose: 50.0 mg/kg/injection, schedule: Q04DX003 (ip), vehicle: water) was 6 of 6 and the survivor count (T/C endpoint: mean survival time, dose: 80.0 mg/kg/injection, schedule: Q01DX005 (ip), vehicle: saline) was 0 of 10. For the same compound, the T/C (T/C endpoint: mean survival time, dose: 80.0 mg/kg/injection, schedule: Q## X024 (ip), vehicle: saline) was 126 % of control, the survivor count (T/C endpoint: mean survival time, dose: 120.0 mg/kg/injection, schedule: Q03DX006 (ip), vehicle: saline) was 0 of 6 and the survivor count (T/C endpoint: mean survival time, dose: 140.0 mg/kg/injection, schedule: Q07DX003 (ip), vehicle: saline) was 4 of 6. The survivor count (T/C endpoint: mean survival time, dose: 160.0 mg/kg/injection, schedule: Q01DX001 (sc), vehicle: saline) was 5 of 10, the survivor count (T/C endpoint: mean survival time, dose: 160.0 mg/kg/injection, schedule: Q01DX003 (ip), vehicle: saline) was 6 of 10 and the survivor count (T/C endpoint: mean survival time, dose: 160.0 mg/kg/injection, schedule: Q01DX005 (ip), vehicle: saline) was 0 of 10. For the same compound, the survivor count (T/C endpoint: mean survival time, dose: 160.0 mg/kg/injection, schedule: Q## X008 (ip), vehicle: saline) was 6 of 10, the survivor count (T/C endpoint: mean survival time, dose: 280.0 mg/kg/injection, schedule: Q01DX001 (ip), vehicle: saline) was 0 of 6 and 4 of 6 and the survivor count (T/C endpoint: mean survival time, dose: 280.0 mg/kg/injection, schedule: Q07DX003 (ip), vehicle: saline) was 2 of 6. The survivor count (T/C endpoint: mean survival time, dose: 320.0 mg/kg/injection, schedule: Q01DX001 (ip), vehicle: saline) was 0 of 10, the survivor count (T/C endpoint: mean survival time, dose: 320.0 mg/kg/injection, schedule: Q01DX001 (sc), vehicle: saline) was 0 of 10 and the survivor count (T/C endpoint: mean survival time, dose: 320.0 mg/kg/injection, schedule: Q01DX003 (ip), vehicle: saline) was 0 of 10. For the same compound, the survivor count (T/C endpoint: mean survival time, dose: 320.0 mg/kg/injection, schedule: Q## X008 (ip), vehicle: saline) was 6 of 10, the survivor count (T/C endpoint: mean survival time, dose: 320.0 mg/kg/injection, schedule: Q## X024 (ip), vehicle: saline) was 3 of 10 and the survivor count (T/C endpoint: mean survival time, dose: 860.0 mg/kg/injection, schedule: Q04DX003 (ip), vehicle: water) was 2 of 6. The T/C (T/C endpoint: median survival time, dose: 10.0 mg/kg/injection, schedule: Q04DX003 (ip), vehicle: water) was 144 % of control and the survivor count (T/C endpoint: median survival time, dose: 40.0 mg/kg/injection, schedule: Q01DX009 (ip), vehicle: water) was 6 of 8.

With `COc1ccc(CC2=NCCc3cc(OC)c(OC)cc32)cc1OC` the survivor count (T/C endpoint: mean survival time, dose: 200.0 mg/kg/injection, schedule: Q01DX009 (ip), vehicle: saline) was 0 of 6, the survivor count [1] was 0 of 6 and 1 of 6 and the survivor count (T/C endpoint: mean survival time, dose: 300.0 mg/kg/injection, schedule: Q01DX001 (ip), vehicle: saline) was 0 of 6. The survivor count (T/C endpoint: mean survival time, dose: 400.0 mg/kg/injection, schedule: Q01DX009 (ip), vehicle: saline) was 0 of 6 and the survivor count [2] was 0 of 6.

In the case of `CCC(=C\c1sc2ccc3ccccc3c2[n+]1CC)/C=C1/Sc2ccc3ccccc3c2N1CC`, the survivor count (T/C endpoint: mean survival time, dose: 9.5 mg/kg/injection, schedule: Q01DX001 (ip), vehicle: other) was 5 of 6, the survivor count (T/C endpoint: mean survival time, dose: 19.0 mg/kg/injection, schedule: Q01DX001 (ip), vehicle: other) was 6 of 6 and the survivor count (T/C endpoint: mean survival time, dose: 38.0 mg/kg/injection, schedule: Q01DX001 (ip), vehicle: other) was 0 of 6.

With `CC1CC(=O)C=C(c2ccccc2)O1` (stereo not drawn) the survivor count (T/C endpoint: mean survival time, dose: 300.0 mg/kg/injection, schedule: Q01DX009 (ip), vehicle: Klucel (hydroxypropylcellulose) (HPC)) was 2 of 6.

For `CO[C@H](C)[C@](O)(C(=O)OCC1=CCN2CC[C@@H](O)[C@H]12)C(C)C`, the T/C (T/C endpoint: mean survival time, dose: 150.0 mg/kg/injection, schedule: Q01DX009 (ip), vehicle: saline) was 127 % of control and the survivor count (T/C endpoint: mean survival time, dose: 225.0 mg/kg/injection, schedule: Q01DX009 (ip), vehicle: saline) was 5 of 6 and 6 of 6.

In the case of `CC1(C)N=C(N)N=C(N)N1c1cccc([N+](=O)[O-])c1`, the survivor count [1] was 1 of 6 and the survivor count [2] was 0 of 6.

For `C[N+](C)(C)CC1(COC(=O)C(O)(c2ccccc2)c2ccccc2)CCC1`, the survivor count (T/C endpoint: mean survival time, dose: 100.0 mg/kg/injection, schedule: Q01DX001 (ip), vehicle: Klucel (hydroxypropylcellulose) (HPC)) was 0 of 6, the survivor count (T/C endpoint: mean survival time, dose: 200.0 mg/kg/injection, schedule: Q01DX001 (ip), vehicle: Klucel (hydroxypropylcellulose) (HPC)) was 0 of 6 and the survivor count (T/C endpoint: mean survival time, dose: 400.0 mg/kg/injection, schedule: Q01DX001 (ip), vehicle: Klucel (hydroxypropylcellulose) (HPC)) was 0 of 6.

In the case of `CCCCCCCCCCCCOB(OCCCCCCCCCCCC)OCCCCCCCCCCCC`, the survivor count (T/C endpoint: mean survival time, dose: 200.0 mg/kg/injection, schedule: Q01DX009 (ip), vehicle: saline with Tween-80) was 4 of 6 and the survivor count (T/C endpoint: mean survival time, dose: 400.0 mg/kg/injection, schedule: Q01DX009 (ip), vehicle: saline with Tween-80) was 3 of 6.

With `O=C(CCl)N(O)c1ccccc1OCc1ccccc1` the survivor count (T/C endpoint: mean survival time, dose: 400.0 mg/kg/injection, schedule: Q04DX003 (ip), vehicle: carboxymethylcellulose (CMC)) was 1 of 6.

For `CCOC(=O)c1cnn2c(=O)[nH]cnc12`, the survivor count [3] was 0 of 6.

With `O=C(C=C(C(F)(F)F)C(F)(F)F)c1cc(Cl)ccc1Cl` the survivor count (T/C endpoint: mean survival time, dose: 50.0 mg/kg/injection, schedule: Q01DX009 (ip), vehicle: saline with Tween-80) was 5 of 6, the survivor count (T/C endpoint: mean survival time, dose: 100.0 mg/kg/injection, schedule: Q04DX003 (ip), vehicle: saline with Tween-80) was 5 of 6 and the survivor count (T/C endpoint: mean survival time, dose: 200.0 mg/kg/injection, schedule: Q04DX003 (ip), vehicle: saline with Tween-80) was 0 of 6. For the same compound, the survivor count [3] was 0 of 6.

With `CCN(CC)CCN(C#N)Cc1ccccc1` the survivor count (T/C endpoint: mean survival time, dose: 150.0 mg/kg/injection, schedule: Q01DX001 (ip), vehicle: carboxymethylcellulose (CMC)) was 1 of 6 and the survivor count (T/C endpoint: mean survival time, dose: 300.0 mg/kg/injection, schedule: Q01DX001 (ip), vehicle: carboxymethylcellulose (CMC)) was 0 of 6.

For `COc1ccc(C(CC(C)=O)c2c(O)c3ccccc3oc2=O)cc1OC` (stereo not drawn), the survivor count (T/C endpoint: mean survival time, dose: 50.0 mg/kg/injection, schedule: Q01DX009 (ip), vehicle: water) was 3 of 6, the survivor count (T/C endpoint: mean survival time, dose: 100.0 mg/kg/injection, schedule: Q01DX009 (ip), vehicle: water) was 2 of 6 and the survivor count (T/C endpoint: mean survival time, dose: 200.0 mg/kg/injection, schedule: Q01DX009 (ip), vehicle: water) was 0 of 6. For the same compound, the survivor count (T/C endpoint: mean survival time, dose: 400.0 mg/kg/injection, schedule: Q01DX009 (ip), vehicle: water) was 0 of 6.
